Experimental data from publication PMC9551036, “A selective and orally bioavailable VHL-recruiting PROTAC achieves SMARCA2 degradation in vivo” (Nature Communications, 2022).
“And” between values parts separate entries of the source, which are not always exact repeats. Identical values can stand only once. Further values from the same series stand in other lists.

What was measured:
[1] = test system: NCI-H1568 tumour xenograft; test: NCI-H1568 xenograft tumour growth; assay type: in vivo, mouse; conditions: qd, individual animals
Protocol: (§1) To establish subcutaneous tumours, mice were injected with 5 × 10^6 NCI-H1568 in PBS with 5% FCS or with 1 × 10^7 A549 cells in PBS with 5% FCS. Tumour diameters were measured with a caliper three times a week. The volume of each tumour (in mm^3) was calculated according to the formula [tumour volume = length × diameter^2 × π/6]. To monitor side effects of treatment, mice were inspected daily for abnormalities and body weight was determined daily after the start of treatment. Animals were sacrificed when the tumours reached a size of 1500 mm^3. Mice were randomised into treatment groups when the average tumour size reached ~210–220 mm^3. Group sizes were calculated individually for each tumour model based on tumour growth during model establishment experiments. A power analysis was performed using a sample size calculator (https://www.stat.ubc.ca/~rollin/stats/ssize/n2.html). For both models used in the study, 10 mice per group were used for each experiment. All administrations were dosed with 10 ml/kg (s.c. and oral). Control mice were dosed subcutaneously with 10% HP-β-CD in 50% Ringer solution and orally with 15% HP-β-CD, that means the control mouse treatment was corresponding to the solvent of the compounds. Compound 6 was dosed subcutaneously either in a d1-4 q3d, d6-8 q2d, d11-13 q2d treatment (Treatment 1) or a q3 or 4d treatment (Treatment 2).
For the evaluation of the statistical significance of tumour growth inhibition, a one-tailed nonparametric Mann-Whitney-Wilcoxon U-test was performed, based on the hypothesis that an effect would only be measurable in one direction (i.e. expectation of tumour inhibition but not tumour stimulation). Analysis was performed on the day indicated for each experiment. The p values obtained from the U-test were adjusted using the Bonferroni-Holm correction. By convention, p values ≤0.05 indicate significance of differences.

[2] = Body weight / tolerability in xenograft studies; assay type: in vivo, mouse; parameters: unit not given here; conditions: day 1, individual animals
Protocol: as §1

Structure (SMILES): Cc1ncsc1-c1ccc([C@H](CCCCCN2CCC(c3ccc4c(c3)n(C3CCCC3)c3nc(=O)c5c(Br)cccc5n43)CC2)NC(=O)[C@@H]2C[C@@H](O)CN2C(=O)[C@@H](NC(=O)C2(F)CC2)C(C)(C)C)cc1 [compound 11]
- Tumor volume ([1]; 30 mg/kg, Day 1): 139.28 mm3 and 152.44 mm3 and 180.41 mm3 and 185.88 mm3 and 193.64 mm3 and 219.59 mm3 and 239.17 mm3 and 261.38 mm3 and 285.6 mm3 and 301.85 mm3
- Tumor volume ([1]; 30 mg/kg, Day 3): 185.56 mm3 and 165.72 mm3 and 178.07 mm3 and 269.15 mm3 and 291.38 mm3 and 273.25 mm3 and 339.58 mm3 and 304.31 mm3 and 333.67 mm3 and 309.18 mm3
- Tumor volume ([1]; 30 mg/kg, Day 6): 273.51 mm3 and 237.33 mm3 and 277.37 mm3 and 296.26 mm3 and 295.01 mm3 and 286.7 mm3 and 437.24 mm3 and 396.86 mm3 and 385.41 mm3 and 432.24 mm3
- Tumor volume ([1]; 30 mg/kg, Day 20): 618.85 mm3 and 198.88 mm3 and 487.36 mm3 and 434.9 mm3 and 444.66 mm3 and 510.94 mm3 and 332.08 mm3 and 388.77 mm3 and 571.38 mm3 and 983.58 mm3
- Tumor volume ([1]; 30 mg/kg, Day 22): 629.82 mm3 and 287.1 mm3 and 377.04 mm3 and 263.4 mm3 and 572.47 mm3 and 632.48 mm3 and 259.69 mm3 and 470.9 mm3 and 607.91 mm3 and 1113.72 mm3
- Tumor volume ([1]; 30 mg/kg, Day 24): 684.25 mm3 and 295.7 mm3 and 433.86 mm3 and 275.59 mm3 and 590.01 mm3 and 693.78 mm3 and 226.99 mm3 and 450.83 mm3 and 640.38 mm3 and 1127.5 mm3
- Tumor volume ([1]; 30 mg/kg, Day 27): 760.15 mm3 and 200.57 mm3 and 455.07 mm3 and 346 mm3 and 467.88 mm3 and 536.85 mm3 and 176.34 mm3 and 388.18 mm3 and 645.23 mm3 and 1092.16 mm3
- Tumor volume ([1]; 30 mg/kg, Day 29): 749.45 mm3 and 181.18 mm3 and 540.35 mm3 and 349.46 mm3 and 448.47 mm3 and 736.69 mm3 and 124.97 mm3 and 449.91 mm3 and 634.32 mm3 and 1166.56 mm3
- Tumor volume ([1]; 30 mg/kg, Day 31): 855.39 mm3 and 231.29 mm3 and 406.22 mm3 and 382.72 mm3 and 500.97 mm3 and 698.51 mm3 and 118.6 mm3 and 458.88 mm3 and 689.45 mm3 and 1386.54 mm3
- Tumor volume ([1]; 100 mg/kg, Day 1): 143.1 mm3 and 159.11 mm3 and 171.16 mm3 and 180.02 mm3 and 195.38 mm3 and 210.69 mm3 and 246.42 mm3 and 263.29 mm3 and 285.44 mm3 and 305.66 mm3
- Tumor volume ([1]; 100 mg/kg, Day 3): 140.99 mm3 and 211.14 mm3 and 152.07 mm3 and 226.44 mm3 and 291.48 mm3 and 280.56 mm3 and 256.22 mm3 and 319.94 mm3 and 325.86 mm3 and 340.95 mm3
- Tumor volume ([1]; 100 mg/kg, Day 6): 152.72 mm3 and 310.74 mm3 and 187.73 mm3 and 244.7 mm3 and 313.93 mm3 and 310.86 mm3 and 326.33 mm3 and 337.02 mm3 and 314.4 mm3 and 415.72 mm3
- Tumor volume ([1]; 100 mg/kg, Day 20): 559.64 mm3 and 478.07 mm3 and 271.78 mm3 and 457.14 mm3 and 512.59 mm3 and 521.48 mm3
- Tumor volume ([1]; 100 mg/kg, Day 22): 211.58 mm3 and 464.63 mm3 and 251.99 mm3 and 546.24 mm3 and 573.39 mm3 and 315.51 mm3 and 456.23 mm3 and 578.76 mm3 and 657.58 mm3
- Tumor volume ([1]; 100 mg/kg, Day 24): 223.29 mm3 and 462.18 mm3 and 255.31 mm3 and 564.5 mm3 and 593.13 mm3 and 321.21 mm3 and 496.06 mm3 and 593.37 mm3 and 684.77 mm3
- Tumor volume ([1]; 100 mg/kg, Day 27): 190.56 mm3 and 507.71 mm3 and 279.45 mm3 and 652.34 mm3 and 681.29 mm3 and 282.22 mm3 and 471.43 mm3 and 607.17 mm3 and 726.27 mm3
- Tumor volume ([1]; 100 mg/kg, Day 29): 204.82 mm3 and 451.57 mm3 and 233.83 mm3 and 634.63 mm3 and 670.46 mm3 and 340.89 mm3 and 462.95 mm3 and 632.41 mm3 and 762.83 mm3
- Tumor volume ([1]; 100 mg/kg, Day 31): 194.67 mm3 and 510.49 mm3 and 248.22 mm3 and 597.24 mm3 and 633.9 mm3 and 374.45 mm3 and 474.51 mm3 and 507.58 mm3 and 793.64 mm3
- Body weight change ([2]; 30 mg/kg qd): 0
- Body weight change ([2]; 100 mg/kg qd): 0
